# No constants are given. Whether binding was seen depends on the method and setting. In cells and extracts the contact can be indirect. Here binding means that the protein was enriched with, or labelled near, the bait; the list need not be complete. Sequences can lack the tags named with a protein.
# By UniProt entry, the sequences of proteins in these tests, tags left out. Where a name states a change or a piece, a line headed by the entry shows the natural chain unless it says otherwise.
# UniProt Q9ZIH6: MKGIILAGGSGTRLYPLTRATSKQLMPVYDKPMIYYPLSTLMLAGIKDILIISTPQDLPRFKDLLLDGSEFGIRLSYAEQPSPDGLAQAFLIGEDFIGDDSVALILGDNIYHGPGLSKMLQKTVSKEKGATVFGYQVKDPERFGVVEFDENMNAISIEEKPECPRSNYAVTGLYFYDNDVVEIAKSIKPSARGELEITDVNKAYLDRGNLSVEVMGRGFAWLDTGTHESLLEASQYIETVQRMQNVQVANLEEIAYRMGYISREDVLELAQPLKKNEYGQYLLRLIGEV
# UniProt A0A0H2ZLV6: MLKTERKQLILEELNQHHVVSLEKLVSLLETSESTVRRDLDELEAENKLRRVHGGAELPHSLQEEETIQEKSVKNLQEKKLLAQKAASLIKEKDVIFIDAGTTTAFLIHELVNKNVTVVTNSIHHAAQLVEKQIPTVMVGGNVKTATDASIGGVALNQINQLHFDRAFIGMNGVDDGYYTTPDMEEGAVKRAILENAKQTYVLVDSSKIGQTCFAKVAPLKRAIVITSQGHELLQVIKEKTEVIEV
# UniProt P72525: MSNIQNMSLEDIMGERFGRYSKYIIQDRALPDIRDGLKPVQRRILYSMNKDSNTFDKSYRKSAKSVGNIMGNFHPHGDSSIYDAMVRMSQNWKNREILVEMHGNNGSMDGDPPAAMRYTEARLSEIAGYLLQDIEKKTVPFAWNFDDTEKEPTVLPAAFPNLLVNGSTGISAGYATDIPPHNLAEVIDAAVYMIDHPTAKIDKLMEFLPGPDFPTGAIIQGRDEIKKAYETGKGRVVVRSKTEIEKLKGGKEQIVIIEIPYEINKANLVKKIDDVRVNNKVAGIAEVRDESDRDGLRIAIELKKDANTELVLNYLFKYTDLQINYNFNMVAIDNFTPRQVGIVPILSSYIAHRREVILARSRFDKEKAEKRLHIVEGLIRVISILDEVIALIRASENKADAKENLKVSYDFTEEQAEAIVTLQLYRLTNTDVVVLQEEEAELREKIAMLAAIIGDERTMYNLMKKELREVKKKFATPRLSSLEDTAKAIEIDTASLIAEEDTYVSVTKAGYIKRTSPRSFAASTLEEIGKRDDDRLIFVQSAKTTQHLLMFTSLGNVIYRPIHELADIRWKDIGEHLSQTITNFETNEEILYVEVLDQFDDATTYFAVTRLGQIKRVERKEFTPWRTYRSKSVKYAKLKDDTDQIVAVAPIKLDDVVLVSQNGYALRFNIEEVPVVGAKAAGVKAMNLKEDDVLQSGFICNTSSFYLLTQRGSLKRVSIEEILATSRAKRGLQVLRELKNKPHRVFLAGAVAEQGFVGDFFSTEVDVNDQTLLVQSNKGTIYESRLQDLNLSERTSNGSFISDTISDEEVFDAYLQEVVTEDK
# UniProt A0A0H2ZQK8: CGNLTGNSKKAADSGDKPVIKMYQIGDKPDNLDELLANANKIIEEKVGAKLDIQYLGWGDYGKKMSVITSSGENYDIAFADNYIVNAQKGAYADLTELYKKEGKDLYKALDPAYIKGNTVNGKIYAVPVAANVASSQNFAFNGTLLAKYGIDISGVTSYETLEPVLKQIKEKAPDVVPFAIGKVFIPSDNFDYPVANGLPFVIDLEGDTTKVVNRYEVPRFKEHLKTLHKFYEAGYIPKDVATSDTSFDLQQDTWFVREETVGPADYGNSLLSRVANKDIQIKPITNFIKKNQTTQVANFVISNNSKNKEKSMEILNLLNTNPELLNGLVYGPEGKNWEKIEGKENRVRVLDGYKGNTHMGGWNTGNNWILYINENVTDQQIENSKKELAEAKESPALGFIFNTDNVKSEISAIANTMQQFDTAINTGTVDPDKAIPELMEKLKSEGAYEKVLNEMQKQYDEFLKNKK
# UniProt A0A0H2ZPQ6: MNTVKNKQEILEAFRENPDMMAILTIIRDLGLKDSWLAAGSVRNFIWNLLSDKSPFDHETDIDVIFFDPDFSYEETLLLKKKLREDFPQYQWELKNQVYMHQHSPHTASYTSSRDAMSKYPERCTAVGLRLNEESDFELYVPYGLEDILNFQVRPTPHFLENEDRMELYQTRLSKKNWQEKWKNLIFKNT
# UniProt A0A0H2ZQ93: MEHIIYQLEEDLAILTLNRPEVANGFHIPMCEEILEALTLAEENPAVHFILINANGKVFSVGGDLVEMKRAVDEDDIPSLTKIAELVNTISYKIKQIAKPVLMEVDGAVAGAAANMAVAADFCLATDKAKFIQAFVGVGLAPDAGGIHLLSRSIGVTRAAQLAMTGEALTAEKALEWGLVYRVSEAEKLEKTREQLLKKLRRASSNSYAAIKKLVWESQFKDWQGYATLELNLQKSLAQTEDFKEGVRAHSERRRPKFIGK
# UniProt A0A0H2ZNT7: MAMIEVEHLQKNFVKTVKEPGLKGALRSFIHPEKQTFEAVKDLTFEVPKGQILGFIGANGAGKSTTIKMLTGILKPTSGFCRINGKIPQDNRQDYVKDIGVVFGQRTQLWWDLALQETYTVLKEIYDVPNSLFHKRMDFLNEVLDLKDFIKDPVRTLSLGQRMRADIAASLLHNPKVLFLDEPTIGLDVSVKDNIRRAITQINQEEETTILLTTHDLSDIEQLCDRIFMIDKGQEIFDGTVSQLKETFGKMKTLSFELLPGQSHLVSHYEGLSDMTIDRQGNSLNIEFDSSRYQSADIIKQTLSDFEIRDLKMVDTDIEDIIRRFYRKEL
# UniProt A0A0H2ZQ72: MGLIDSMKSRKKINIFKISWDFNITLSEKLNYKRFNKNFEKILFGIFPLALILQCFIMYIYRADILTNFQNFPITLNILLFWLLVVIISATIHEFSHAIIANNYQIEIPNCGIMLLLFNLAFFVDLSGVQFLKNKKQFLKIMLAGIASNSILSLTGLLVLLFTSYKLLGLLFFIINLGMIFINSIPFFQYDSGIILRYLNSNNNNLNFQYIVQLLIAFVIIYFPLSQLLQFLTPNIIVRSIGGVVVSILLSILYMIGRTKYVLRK
# UniProt A0A0H2ZLP9: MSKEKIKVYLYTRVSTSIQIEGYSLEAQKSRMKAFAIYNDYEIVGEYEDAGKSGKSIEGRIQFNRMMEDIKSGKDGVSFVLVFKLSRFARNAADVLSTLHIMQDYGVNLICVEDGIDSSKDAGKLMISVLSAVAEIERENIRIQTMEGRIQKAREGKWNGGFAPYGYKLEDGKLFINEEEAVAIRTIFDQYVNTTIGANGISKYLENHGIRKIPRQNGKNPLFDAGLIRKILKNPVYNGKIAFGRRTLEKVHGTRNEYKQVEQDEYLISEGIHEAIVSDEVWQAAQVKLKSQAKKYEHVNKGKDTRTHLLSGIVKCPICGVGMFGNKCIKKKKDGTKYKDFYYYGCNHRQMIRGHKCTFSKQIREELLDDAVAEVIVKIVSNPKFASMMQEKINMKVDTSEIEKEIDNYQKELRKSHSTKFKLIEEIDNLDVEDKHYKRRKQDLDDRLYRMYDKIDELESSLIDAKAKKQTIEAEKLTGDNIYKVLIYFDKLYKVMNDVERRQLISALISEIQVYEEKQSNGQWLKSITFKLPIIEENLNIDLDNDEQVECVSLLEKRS
# UniProt A0A0H2ZPT1: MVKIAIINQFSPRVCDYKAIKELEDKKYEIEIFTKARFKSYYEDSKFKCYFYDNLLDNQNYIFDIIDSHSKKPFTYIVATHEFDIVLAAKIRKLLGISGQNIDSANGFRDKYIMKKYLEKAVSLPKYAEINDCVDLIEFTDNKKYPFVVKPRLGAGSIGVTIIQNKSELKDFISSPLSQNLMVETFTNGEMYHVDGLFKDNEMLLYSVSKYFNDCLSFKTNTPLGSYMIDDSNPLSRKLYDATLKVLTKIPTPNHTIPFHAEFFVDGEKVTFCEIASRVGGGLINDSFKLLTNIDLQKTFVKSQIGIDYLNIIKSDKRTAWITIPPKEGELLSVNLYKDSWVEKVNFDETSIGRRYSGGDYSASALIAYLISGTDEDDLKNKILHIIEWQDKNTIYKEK
# UniProt A0A0H2ZRM2: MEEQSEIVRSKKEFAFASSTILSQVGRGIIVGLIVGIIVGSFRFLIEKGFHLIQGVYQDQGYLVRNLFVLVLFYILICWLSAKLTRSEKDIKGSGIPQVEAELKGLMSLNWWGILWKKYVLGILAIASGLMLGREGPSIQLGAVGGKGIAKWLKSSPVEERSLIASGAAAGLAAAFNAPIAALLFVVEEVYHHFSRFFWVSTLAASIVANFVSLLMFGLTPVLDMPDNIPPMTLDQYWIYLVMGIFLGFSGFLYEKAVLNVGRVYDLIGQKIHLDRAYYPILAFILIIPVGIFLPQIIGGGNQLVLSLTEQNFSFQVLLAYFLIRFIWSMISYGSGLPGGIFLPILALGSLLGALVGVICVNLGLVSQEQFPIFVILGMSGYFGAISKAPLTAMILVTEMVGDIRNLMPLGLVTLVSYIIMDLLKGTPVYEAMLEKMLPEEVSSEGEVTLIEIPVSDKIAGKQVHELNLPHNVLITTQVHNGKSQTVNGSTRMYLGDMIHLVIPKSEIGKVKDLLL
# UniProt A0A0H2ZPE9: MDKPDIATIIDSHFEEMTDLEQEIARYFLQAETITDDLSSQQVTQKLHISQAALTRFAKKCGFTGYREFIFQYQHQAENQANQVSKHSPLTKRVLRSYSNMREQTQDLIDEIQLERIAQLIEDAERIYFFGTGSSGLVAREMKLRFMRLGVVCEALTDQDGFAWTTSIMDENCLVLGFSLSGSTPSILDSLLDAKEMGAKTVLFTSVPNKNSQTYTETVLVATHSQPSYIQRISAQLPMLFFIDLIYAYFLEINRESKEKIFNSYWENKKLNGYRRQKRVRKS
# UniProt A0A0H2ZL87: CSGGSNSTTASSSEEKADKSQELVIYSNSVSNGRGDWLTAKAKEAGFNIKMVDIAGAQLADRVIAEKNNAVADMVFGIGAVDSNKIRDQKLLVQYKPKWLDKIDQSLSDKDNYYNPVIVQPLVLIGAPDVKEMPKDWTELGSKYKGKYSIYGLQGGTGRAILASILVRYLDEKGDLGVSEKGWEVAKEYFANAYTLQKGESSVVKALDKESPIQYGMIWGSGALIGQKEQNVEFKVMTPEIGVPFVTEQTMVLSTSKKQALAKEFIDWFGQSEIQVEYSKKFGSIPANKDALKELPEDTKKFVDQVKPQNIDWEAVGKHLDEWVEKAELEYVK
# UniProt A0A0H2ZMX7: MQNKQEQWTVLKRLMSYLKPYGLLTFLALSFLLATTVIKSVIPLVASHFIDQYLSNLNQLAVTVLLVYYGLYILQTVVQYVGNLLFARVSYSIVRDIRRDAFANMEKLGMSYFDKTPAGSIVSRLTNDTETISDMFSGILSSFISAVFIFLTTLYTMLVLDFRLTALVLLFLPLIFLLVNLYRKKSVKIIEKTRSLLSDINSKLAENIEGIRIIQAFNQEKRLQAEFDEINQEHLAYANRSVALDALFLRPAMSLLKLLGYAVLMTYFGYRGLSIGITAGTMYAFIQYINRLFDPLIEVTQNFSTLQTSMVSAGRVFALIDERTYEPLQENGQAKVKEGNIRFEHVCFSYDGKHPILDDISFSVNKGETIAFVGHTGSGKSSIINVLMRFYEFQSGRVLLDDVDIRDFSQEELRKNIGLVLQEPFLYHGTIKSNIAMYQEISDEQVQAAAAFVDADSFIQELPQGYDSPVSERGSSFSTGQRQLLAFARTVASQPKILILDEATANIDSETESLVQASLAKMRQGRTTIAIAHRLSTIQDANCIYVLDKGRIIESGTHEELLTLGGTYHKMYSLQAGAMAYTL
# UniProt A0A0H2ZP30: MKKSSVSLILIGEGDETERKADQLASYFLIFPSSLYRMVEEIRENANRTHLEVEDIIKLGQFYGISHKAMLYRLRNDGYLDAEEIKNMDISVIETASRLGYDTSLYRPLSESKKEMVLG
# UniProt A0A0H2ZP24: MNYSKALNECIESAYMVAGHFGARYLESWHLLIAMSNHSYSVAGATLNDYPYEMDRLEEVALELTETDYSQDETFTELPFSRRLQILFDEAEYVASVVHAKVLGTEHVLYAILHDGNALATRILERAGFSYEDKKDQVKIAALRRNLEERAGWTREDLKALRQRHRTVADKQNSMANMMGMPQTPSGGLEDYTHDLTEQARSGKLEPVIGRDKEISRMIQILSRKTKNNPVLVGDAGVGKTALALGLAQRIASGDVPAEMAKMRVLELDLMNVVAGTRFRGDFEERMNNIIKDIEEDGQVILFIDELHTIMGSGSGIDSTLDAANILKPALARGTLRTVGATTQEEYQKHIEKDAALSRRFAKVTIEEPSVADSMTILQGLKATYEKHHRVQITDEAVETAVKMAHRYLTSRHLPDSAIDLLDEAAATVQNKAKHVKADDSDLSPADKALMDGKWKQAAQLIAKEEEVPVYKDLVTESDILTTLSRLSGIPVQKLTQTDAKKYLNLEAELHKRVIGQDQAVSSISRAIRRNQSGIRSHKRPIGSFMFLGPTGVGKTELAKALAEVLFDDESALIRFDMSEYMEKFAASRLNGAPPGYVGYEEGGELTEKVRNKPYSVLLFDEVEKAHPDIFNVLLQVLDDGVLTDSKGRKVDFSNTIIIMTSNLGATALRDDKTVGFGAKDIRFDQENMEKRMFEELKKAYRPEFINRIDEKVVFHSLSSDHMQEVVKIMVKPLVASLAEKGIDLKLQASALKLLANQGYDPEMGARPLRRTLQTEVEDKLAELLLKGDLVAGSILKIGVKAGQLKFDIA
# Molecular target: T1, SPD_0310-GST fusion protein (S. pneumoniae D39) (UniProt Q04MC1)
# T1 sequence: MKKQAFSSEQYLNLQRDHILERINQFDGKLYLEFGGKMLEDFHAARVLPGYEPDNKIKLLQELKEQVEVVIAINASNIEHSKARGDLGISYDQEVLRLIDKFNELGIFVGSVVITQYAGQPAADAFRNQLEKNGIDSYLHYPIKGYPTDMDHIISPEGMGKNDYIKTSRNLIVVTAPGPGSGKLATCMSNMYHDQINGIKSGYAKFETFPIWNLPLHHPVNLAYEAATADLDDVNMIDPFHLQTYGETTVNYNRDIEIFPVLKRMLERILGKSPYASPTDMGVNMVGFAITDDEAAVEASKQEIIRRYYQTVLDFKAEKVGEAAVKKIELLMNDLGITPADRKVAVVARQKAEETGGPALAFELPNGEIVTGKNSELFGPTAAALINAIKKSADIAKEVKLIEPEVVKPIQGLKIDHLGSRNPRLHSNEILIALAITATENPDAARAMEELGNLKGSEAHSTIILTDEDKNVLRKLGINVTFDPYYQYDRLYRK
# Test: affinity purification with mass spectrometry; SPD_0310-GST (or GST as control) on GST-gel beads incubated with the whole proteins of S. pneumoniae D39 for 10 h at 4°C; washed with 1× PBS; whole lanes digested in-gel, MS; only the target purified
row,Substance,binding
1,Cps2L (from UniProt Q9ZIH6 1-289),binds
2,DppC,binds
3,Gap (from UniProt A0A0H2US80 1-335),binds
4,GpsA,binds
5,LacR1 (from UniProt A0A0H2ZLV6 1-246),binds
6,MalX,binds
7,MurB,binds
8,ParC (from UniProt P72525 1-823),binds
9,PfkA,binds
10,PrsA,binds
11,PurH,binds
12,RpsH,binds
13,SPD_0090 (from UniProt A0A0H2ZQK8),binds
14,SPD_0242 (from UniProt A0A0H2ZPQ6 1-190),binds
15,SPD_0378 (from UniProt A0A0H2ZQ93 1-261),binds
16,SPD_0554 (from UniProt A0A0H2ZNT7 1-330),binds
17,SPD_0603 (from UniProt A0A0H2ZQ72 1-265),binds
18,SPD_0921 (from UniProt A0A0H2ZLP9 1-559),binds
19,SPD_0948 (from UniProt A0A0H2ZPT1 1-399),binds
20,SPD_1021 (from UniProt A0A0H2ZRM2 1-516),binds
21,SPD_1487 (from UniProt A0A0H2ZPE9 1-283),binds
22,SPD_1609 (from UniProt A0A0H2ZL87),binds
23,SPD_1621 (from UniProt A0A0H2ZMX7),binds
24,SPD_1736 (from UniProt A0A0H2ZP30 1-119),binds
25,SPD_2022 (from UniProt A0A0H2ZP24),binds

# Source: publication PMC9238395, “Identification and Tetramer Structure of Hemin-Binding Protein SPD_0310 Linked to Iron Homeostasis and Virulence of Streptococcus pneumoniae” (mSystems, 2022)
